Results on two molecules are retold here after patent US20190000969A1.

The target in assay [1] is T1, hUPK1B(108-229)-Fc, second extracellular domain of human UPK1B fused to human IgG2 Fc (human) (UniProt O75841).
T1 sequence: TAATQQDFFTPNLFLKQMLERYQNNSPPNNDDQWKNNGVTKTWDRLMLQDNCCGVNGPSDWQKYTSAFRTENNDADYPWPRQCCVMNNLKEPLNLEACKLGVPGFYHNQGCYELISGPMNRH
Put plainly: IHC competition: SC115.7 mixed with 5x molar excess of hUPK1B-Fc before staining of FFPE sections.

Assay [2] concerns the target T1, hUPK1B(108-229)-Fc, second extracellular domain of human UPK1B fused to human IgG2 Fc (human). Put plainly: IHC competition: antibody premixed with 5x molar excess of hUPK1B-Fc, then applied to FFPE sections of UPK1B-expressing HEK293T cells.
Assay [3] shares this target. Put plainly: MSD electrochemiluminescence sandwich ELISA; standard curve with purified recombinant hUPK1B-Fc. A general note: An ELISA detects its analyte on a solid surface through an enzyme-linked reagent.

Results are given in words; binding and its absence hold for the method and conditions named. Some binding calls cover weakened binding; strength is not graded here. Tags and fused reporters may be left off the sequences shown.

B1: SC115.7 (antibody, V domains shown)
VH: EVQLQQSGAELVRPGASVKLSCTASGFNIKDSFIHWVKKRPEEGLEWIGWIDPEDGETKYAPKFQDKATITADTSSNTAYLQLSSLTSEDTAIYYCARRERFYGIYYALDYWGQGTSVTVSS
VL: DIVMTQSPSSLTVTAGEKVTMSCKSSQSLLNSGNQKNYLTWYQQKLGQPPKLLIYWASTRESGVPDRFTGSGSGTDFTLTISSVQAEDLAVYYCQNDYSNPFTFGSGTKLEIK
For the molecule B1, the binding result in assay [1] and in assay [2] was “binds” throughout.

B2: SC115.18 (antibody, V domains shown)
VH: QVQLQQPGAELVRPGSSVKLSCKASGYTFTSYWMHWVKQRPMQGLEWIGNIDPSDSEIYYNQKFKDKATLTVDKSSGTAYMQLSSLTSEDSAVYYCARRSGSRDYYGMDDWGQGTSVTVSS
VL: DIVMTQSPSSLTVTAGEKVTMRCKSSQSLLNSGNQKNYLTWYQQKPGQPPKLLISWASTRDSGVPDRFTGSGSRTDFILTISSVQAEDLAVYYCQNDYSYPLTFGAGTKLELK
As to B2, the binding entry in assay [3] is “binds”.
